# Test results reported in the supplement of paper PMC8728848.
# The list shows a part of the results.
# Columns and labels:
# Experiment in all cases: glycan array binding signal (z-score within array); higher = stronger binding
# Conditions in all cases: glycan notation: IUPAC condensed, linker removed
# [1] = biological target: GlcNAc(a1-6)Gal(b1-4)GlcNAc
# How it was run: (§1)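 Arrays were curated from the Consortium for Functional Glycomics database, 3228 in total, and kept only where the protein sequence was available. Binding is expressed as a within-array Z-score. This score was averaged across arrays of the same protein sequence at different concentrations or buffers and across linkers, and negative values can be read as non-binding.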
# [2] = biological target: GlcNAc(b1-2)Gal(b1-3)GalNAc
# How it was run: as §1
# [3] = biological target: GlcNAc(b1-2)Man(a1-3)[GlcNAc(b1-2)Man(a1-6)]Man(b1-4)GlcNAc(b1-4)GlcNAc
# How it was run: as §1
# [4] = biological target: GlcNAc(b1-2)Man(a1-3)[GlcNAc(b1-2)Man(a1-6)]Man(b1-4)GlcNAc(b1-4)[Fuc(a1-6)]GlcNAc
# How it was run: as §1
# [5] = biological target: GlcNAc(b1-2)Man(a1-3)[GlcNAc(b1-4)][GlcNAc(b1-2)Man(a1-6)]Man(b1-4)GlcNAc(b1-4)GlcNAc
# How it was run: as §1
# [6] = biological target: GlcNAc(b1-2)Man(a1-3)[GlcNAc(b1-4)][GlcNAc(b1-2)Man(a1-6)]Man(b1-4)GlcNAc(b1-4)[Fuc(a1-6)]GlcNAc
# How it was run: as §1
# [7] = biological target: GlcNAc(b1-2)[GlcNAc(b1-4)]Man(a1-3)[GlcNAc(b1-2)Man(a1-6)]Man(b1-4)GlcNAc(b1-4)GlcNAc
# How it was run: as §1
# [8] = biological target: GlcNAc(b1-2)[GlcNAc(b1-4)]Man(a1-3)[GlcNAc(b1-4)][GlcNAc(b1-2)Man(a1-6)]Man(b1-4)GlcNAc(b1-4)GlcNAc
# How it was run: as §1
# [9] = biological target: GlcNAc(b1-2)[GlcNAc(b1-4)]Man(a1-3)[GlcNAc(b1-4)][GlcNAc(b1-2)[GlcNAc(b1-6)]Man(a1-6)]Man(b1-4)GlcNAc(b1-4)GlcNAc
# How it was run: as §1
# [10] = biological target: GlcNAc(b1-2)[GlcNAc(b1-4)]Man(a1-3)[GlcNAc(b1-4)][GlcNAc(b1-2)[GlcNAc(b1-6)]Man(a1-6)]Man(b1-4)GlcNAc(b1-4)[Fuc(a1-6)]GlcNAc
# How it was run: as §1
# [11] = biological target: GlcNAc(b1-2)[GlcNAc(b1-6)]Man(a1-6)[GlcNAc(b1-2)Man(a1-3)]Man(b1-4)GlcNAc(b1-4)GlcNAc
# How it was run: as §1
# [12] = biological target: GlcNAc(b1-2)[GlcNAc(b1-6)]Man(a1-6)[GlcNAc(b1-2)Man(a1-3)]Man(b1-4)GlcNAc(b1-4)[Fuc(a1-6)]GlcNAc
# How it was run: as §1
# [13] = biological target: GlcNAc(b1-2)[GlcNAc(b1-6)]Man(a1-6)[GlcNAc(b1-4)][GlcNAc(b1-2)Man(a1-3)]Man(b1-4)GlcNAc(b1-4)GlcNAc
# How it was run: as §1
# [14] = biological target: GlcNAc(b1-3)Fuc
# How it was run: as §1
# [15] = biological target: GlcNAc(b1-3)Gal
# How it was run: as §1
# [16] = biological target: GlcNAc(b1-3)Gal(b1-3)GalNAc
# How it was run: as §1
# [17] = biological target: GlcNAc(b1-3)Gal(b1-4)Glc
# How it was run: as §1
# [18] = biological target: GlcNAc(b1-3)Gal(b1-4)GlcNAc
# How it was run: as §1
# [19] = biological target: GlcNAc(b1-3)Gal(b1-4)GlcNAc(b1-2)Man(a1-3)[GlcNAc(b1-3)Gal(b1-4)GlcNAc(b1-2)Man(a1-6)]Man(b1-4)GlcNAc(b1-4)GlcNAc
# How it was run: as §1
# [20] = biological target: GlcNAc(b1-3)Gal(b1-4)GlcNAc(b1-2)Man(a1-3)[GlcNAc(b1-3)Gal(b1-4)GlcNAc(b1-2)Man(a1-6)]Man(b1-4)GlcNAc(b1-4)[Fuc(a1-6)]GlcNAc
# How it was run: as §1
# [21] = biological target: GlcNAc(b1-3)Gal(b1-4)GlcNAc(b1-2)[GlcNAc(b1-3)Gal(b1-4)GlcNAc(b1-6)]Man(a1-6)[GlcNAc(b1-3)Gal(b1-4)GlcNAc(b1-2)Man(a1-3)]Man(b1-4)GlcNAc(b1-4)GlcNAc
# How it was run: as §1
# [22] = biological target: GlcNAc(b1-3)Gal(b1-4)GlcNAc(b1-3)Gal(b1-4)GlcNAc
# How it was run: as §1
binder,measurement,setting,value
Epa21 (Candida glabrata) (protein) MGSSHHHHHHSSGLVPRGSHMASTPNIESHPQGCSPVDTSGIKPGLKMDLYRFPITPPGTGCWSWDWLTVTPDFPRSGYWKWPKIAEVDGVVGPLHLDSGHPTCDPLTSVLPHGFNYLQSITTTNFTMVLHGYFVPKQSGKYTFEFKADDALLLNLGAGNAFSCCDYNNSQYNQGEYLAYAIWSKNNQTATLYLEKGIYYPIRVFYHNRCCGAYMDVVYYFNDSPIPNRDFSGLLFSIPDSDSCDANI,glycan array binding signal (z-score),[1],-0.825
same,glycan array binding signal (z-score),[2],-0.466
same,glycan array binding signal (z-score),[3],-0.432
same,glycan array binding signal (z-score),[4],0.343
same,glycan array binding signal (z-score),[5],-0.587
same,glycan array binding signal (z-score),[6],-0.612
same,glycan array binding signal (z-score),[7],-0.665
same,glycan array binding signal (z-score),[8],-0.349
same,glycan array binding signal (z-score),[9],-0.585
same,glycan array binding signal (z-score),[10],-0.52
same,glycan array binding signal (z-score),[11],-0.358
same,glycan array binding signal (z-score),[12],-0.735
same,glycan array binding signal (z-score),[13],-0.815
same,glycan array binding signal (z-score),[14],-0.247
same,glycan array binding signal (z-score),[15],-0.833
same,glycan array binding signal (z-score),[16],-0.094
same,glycan array binding signal (z-score),[17],-0.055
same,glycan array binding signal (z-score),[18],-0.589
same,glycan array binding signal (z-score),[19],-0.44
same,glycan array binding signal (z-score),[20],0.136
same,glycan array binding signal (z-score),[21],0.427
same,glycan array binding signal (z-score),[22],-1.1

# Reprinted at random: 2 entries already listed.
binder,measurement,setting,value
Epa21 (Candida glabrata) (protein) MGSSHHHHHHSSGLVPRGSHMASTPNIESHPQGCSPVDTSGIKPGLKMDLYRFPITPPGTGCWSWDWLTVTPDFPRSGYWKWPKIAEVDGVVGPLHLDSGHPTCDPLTSVLPHGFNYLQSITTTNFTMVLHGYFVPKQSGKYTFEFKADDALLLNLGAGNAFSCCDYNNSQYNQGEYLAYAIWSKNNQTATLYLEKGIYYPIRVFYHNRCCGAYMDVVYYFNDSPIPNRDFSGLLFSIPDSDSCDANI,glycan array binding signal (z-score),[9],-0.585
same,glycan array binding signal (z-score),[8],-0.349
